Reference: the supplement of paper PMC8728848
The list shows a part of the results.

Legend:
Test in all cases: glycan array binding signal (z-score within array); higher = stronger binding
Settings in all cases: glycan notation: IUPAC condensed, linker removed
[1] = biological target: Fuc(a1-2)[Gal(a1-3)]Gal(b1-4)GlcNAc(b1-2)Man(a1-3)[Fuc(a1-2)[Gal(a1-3)]Gal(b1-4)GlcNAc(b1-2)Man(a1-6)]Man(b1-4)GlcNAc(b1-4)[Fuc(a1-6)]GlcNAc
Method in brief: (§1)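 Glycan array data were curated from 3228 arrays in the Consortium for Functional Glycomics database and kept only where the protein sequence was available. Glycan names were converted to IUPAC-condensed notation, and columns mapping to the same glycan were averaged. The binding signal is a within-array Z-score, averaged across arrays of the same protein sequence at different concentrations or buffers and across linkers. Negative Z-scores can be read as non-binding.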

[2] = biological target: Fuc(a1-2)[Gal(a1-3)]Gal(b1-4)GlcNAc(b1-3)GalNAc
Method in brief: as §1

[3] = biological target: Fuc(a1-2)[Gal(a1-3)]Gal(b1-4)GlcNAc(b1-3)[Fuc(a1-2)[Gal(a1-3)]Gal(b1-4)GlcNAc(b1-6)]GalNAc
Method in brief: as §1

[4] = biological target: Fuc(a1-2)[Gal(a1-3)]Gal(b1-4)GlcNAc(b1-6)GalNAc
Method in brief: as §1

[5] = biological target: Fuc(a1-2)[Gal(a1-3)]Gal(b1-4)[Fuc(a1-3)]Glc
Method in brief: as §1

[6] = biological target: Fuc(a1-2)[Gal(a1-3)]Gal(b1-4)[Fuc(a1-3)]GlcNAc
Method in brief: as §1

[7] = biological target: Fuc(a1-2)[Gal(a1-3)]Gal(b1-4)[Fuc(a1-3)]GlcNAc(b1-3)GalNAc
Method in brief: as §1

[8] = biological target: Fuc(a1-2)[Gal(a1-4)]Gal(b1-4)GlcNAc
Method in brief: as §1

[9] = biological target: Fuc(a1-2)[GalNAc(a1-3)]Gal
Method in brief: as §1

[10] = biological target: Fuc(a1-2)[GalNAc(a1-3)]Gal(b1-3)GalNAc(a1-3)[Fuc(a1-2)]Gal(b1-4)GlcNAc
Method in brief: as §1

[11] = biological target: Fuc(a1-2)[GalNAc(a1-3)]Gal(b1-3)GalNAc(b1-3)Gal(a1-4)Gal(b1-4)Glc
Method in brief: as §1

[12] = biological target: Fuc(a1-2)[GalNAc(a1-3)]Gal(b1-3)GlcNAc
Method in brief: as §1

[13] = biological target: Fuc(a1-2)[GalNAc(a1-3)]Gal(b1-3)GlcNAc(b1-2)Man(a1-3)[Fuc(a1-2)[GalNAc(a1-3)]Gal(b1-3)GlcNAc(b1-2)Man(a1-6)]Man(b1-4)GlcNAc(b1-4)GlcNAc
Method in brief: as §1

[14] = biological target: Fuc(a1-2)[GalNAc(a1-3)]Gal(b1-3)GlcNAc(b1-2)Man(a1-3)[Fuc(a1-2)[GalNAc(a1-3)]Gal(b1-3)GlcNAc(b1-2)Man(a1-6)]Man(b1-4)GlcNAc(b1-4)[Fuc(a1-6)]GlcNAc
Method in brief: as §1

[15] = biological target: Fuc(a1-2)[GalNAc(a1-3)]Gal(b1-3)GlcNAc(b1-3)GalNAc
Method in brief: as §1

[16] = biological target: Fuc(a1-2)[GalNAc(a1-3)]Gal(b1-3)GlcNAc(b1-6)GalNAc
Method in brief: as §1

[17] = biological target: Fuc(a1-2)[GalNAc(a1-3)]Gal(b1-4)Glc
Method in brief: as §1

[18] = biological target: Fuc(a1-2)[GalNAc(a1-3)]Gal(b1-4)GlcNAc
Method in brief: as §1

[19] = biological target: Fuc(a1-2)[GalNAc(a1-3)]Gal(b1-4)GlcNAc(b1-2)Man
Method in brief: as §1

[20] = biological target: Fuc(a1-2)[GalNAc(a1-3)]Gal(b1-4)GlcNAc(b1-2)Man(a1-3)[Fuc(a1-2)[GalNAc(a1-3)]Gal(b1-4)GlcNAc(b1-2)Man(a1-6)]Man(b1-4)GlcNAc(b1-4)GlcNAc
Method in brief: as §1

[21] = biological target: Fuc(a1-2)[GalNAc(a1-3)]Gal(b1-4)GlcNAc(b1-2)Man(a1-3)[Fuc(a1-2)[GalNAc(a1-3)]Gal(b1-4)GlcNAc(b1-2)Man(a1-6)]Man(b1-4)GlcNAc(b1-4)[Fuc(a1-6)]GlcNAc
Method in brief: as §1

[22] = biological target: Fuc(a1-2)[GalNAc(a1-3)]Gal(b1-4)GlcNAc(b1-3)Gal(b1-4)GlcNAc
Method in brief: as §1

[23] = biological target: Fuc(a1-2)[GalNAc(a1-3)]Gal(b1-4)GlcNAc(b1-3)Gal(b1-4)GlcNAc(b1-3)Gal(b1-4)GlcNAc
Method in brief: as §1

[24] = biological target: Fuc(a1-2)[GalNAc(a1-3)]Gal(b1-4)GlcNAc(b1-3)GalNAc
Method in brief: as §1

[25] = biological target: Fuc(a1-2)[GalNAc(a1-3)]Gal(b1-4)GlcNAc(b1-3)[Fuc(a1-2)[GalNAc(a1-3)]Gal(b1-4)GlcNAc(b1-6)]GalNAc
Method in brief: as §1

[26] = biological target: Fuc(a1-2)[GalNAc(a1-3)]Gal(b1-4)GlcNAc(b1-6)GalNAc
Method in brief: as §1

[27] = biological target: Fuc(a1-2)[GalNAc(a1-3)]Gal(b1-4)[Fuc(a1-3)]GlcNAc
Method in brief: as §1

[28] = biological target: Fuc(a1-2)[GalNAc(a1-3)]Gal(b1-4)[Fuc(a1-3)]GlcNAc(b1-3)GalNAc
Method in brief: as §1

[29] = biological target: Fuc(a1-2)[GalNAc(a1-4)]Gal(b1-4)GlcNAc
Method in brief: as §1

[30] = biological target: Fuc(a1-2)[GalNAc(b1-3)]Gal
Method in brief: as §1

[31] = biological target: Fuc(a1-3)GlcNAc
Method in brief: as §1

[32] = biological target: Fuc(a1-3)[Gal(b1-4)]Glc6S
Method in brief: as §1

[33] = biological target: Fuc(a1-3)[Gal(b1-4)]GlcNAc
Method in brief: as §1

[34] = biological target: Fuc(a1-3)[Gal(b1-4)]GlcNAc(b1-2)Man
Method in brief: as §1

[35] = biological target: Fuc(a1-3)[Gal(b1-4)]GlcNAc(b1-2)Man(a1-3)[Fuc(a1-3)[Gal(b1-4)]GlcNAc(b1-2)Man(a1-6)]Man(b1-4)GlcNAc(b1-4)GlcNAc
Method in brief: as §1

[36] = biological target: Fuc(a1-3)[Gal(b1-4)]GlcNAc(b1-2)Man(a1-3)[Fuc(a1-3)[Gal(b1-4)]GlcNAc(b1-2)Man(a1-6)]Man(b1-4)GlcNAc(b1-4)[Fuc(a1-6)]GlcNAc
Method in brief: as §1

[37] = biological target: Fuc(a1-3)[Gal(b1-4)]GlcNAc(b1-3)Gal(b1-3)[Fuc(a1-4)]GlcNAc
Method in brief: as §1

[38] = biological target: Fuc(a1-3)[Gal(b1-4)]GlcNAc(b1-3)Gal(b1-4)[Fuc(a1-3)]GlcNAc
Method in brief: as §1

[39] = biological target: Fuc(a1-3)[Gal(b1-4)]GlcNAc(b1-3)Gal(b1-4)[Fuc(a1-3)]GlcNAc(b1-3)Gal(b1-4)[Fuc(a1-3)]GlcNAc
Method in brief: as §1

[40] = biological target: Fuc(a1-3)[Gal(b1-4)]GlcNAc(b1-3)GalNAc
Method in brief: as §1

[41] = biological target: Fuc(a1-3)[Gal(b1-4)]GlcNAc(b1-6)GalNAc
Method in brief: as §1

[42] = biological target: Fuc(a1-3)[Gal(b1-4)]GlcNAc(b1-6)[Gal(b1-3)GlcNAc(b1-3)]Gal(b1-4)Glc
Method in brief: as §1

[43] = biological target: Fuc(a1-3)[Gal(b1-4)]GlcNAc6S
Method in brief: as §1

[44] = biological target: Fuc(a1-3)[Gal3S(b1-4)]Glc
Method in brief: as §1

[45] = biological target: Fuc(a1-3)[Gal3S(b1-4)]GlcNAc
Method in brief: as §1

B1: Epa3to2 (Candida glabrata) (protein)
chain: MGSSHHHHHHSSGLVPRGSHMKRELSSQNPFGYPIGCSPQDVAIIPGLTMELYSYPIVSGTPPNCYDASYVDPEYPRTGYLKRKMVGKSTGVTGNLNYKYSVEKACMVKYGNLPAGYNYNEPLTVSNFTMILYGYFKAQTTGLHTFFVNADDLLYINFGAGNAFDCCKREDSKTKLGEYVAYDIWHVDSSKNKVSLFLEKDLYYPIRMFFNNRDNNSSLDLSFSVNGATDQISDFSGYLYSVPDQPDTCPAHIGYDTTCR
glycan array binding signal (z-score) [1]: 0.489 | glycan array binding signal (z-score) [2]: -0.527 | glycan array binding signal (z-score) [3]: 1.44 | glycan array binding signal (z-score) [4]: -0.714 | glycan array binding signal (z-score) [5]: 0.485 | glycan array binding signal (z-score) [6]: -0.786 | glycan array binding signal (z-score) [7]: -0.581 | glycan array binding signal (z-score) [8]: -0.207 | glycan array binding signal (z-score) [9]: -0.653 | glycan array binding signal (z-score) [10]: -0.917 | glycan array binding signal (z-score) [11]: -0.415 | glycan array binding signal (z-score) [12]: 1.91 | glycan array binding signal (z-score) [13]: -0.169 | glycan array binding signal (z-score) [14]: 0.117 | glycan array binding signal (z-score) [15]: -0.109 | glycan array binding signal (z-score) [16]: -1.41 | glycan array binding signal (z-score) [17]: -0.807 | glycan array binding signal (z-score) [18]: 0.658 | glycan array binding signal (z-score) [19]: -0.869 | glycan array binding signal (z-score) [20]: -0.503 | glycan array binding signal (z-score) [21]: 0.837 | glycan array binding signal (z-score) [22]: -0.77 | glycan array binding signal (z-score) [23]: 0.839 | glycan array binding signal (z-score) [24]: -0.995 | glycan array binding signal (z-score) [25]: -0.064 | glycan array binding signal (z-score) [26]: 0.299 | glycan array binding signal (z-score) [27]: 0.989 | glycan array binding signal (z-score) [28]: -0.765 | glycan array binding signal (z-score) [29]: -1.66 | glycan array binding signal (z-score) [30]: 1.21 | glycan array binding signal (z-score) [31]: 0.35 | glycan array binding signal (z-score) [32]: 0.316 | glycan array binding signal (z-score) [33]: -0.224 | glycan array binding signal (z-score) [34]: -1.12 | glycan array binding signal (z-score) [35]: -0.606 | glycan array binding signal (z-score) [36]: -0.166 | glycan array binding signal (z-score) [37]: -1.04 | glycan array binding signal (z-score) [38]: 1.3 | glycan array binding signal (z-score) [39]: -0.979 | glycan array binding signal (z-score) [40]: 1.52 | glycan array binding signal (z-score) [41]: -1.35 | glycan array binding signal (z-score) [42]: 0.768 | glycan array binding signal (z-score) [43]: 1.03 | glycan array binding signal (z-score) [44]: 0.878 | glycan array binding signal (z-score) [45]: -0.386
